PubChem BioAssay AID743121 | NCATS | 2013
Aim: 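Partners whose loss is lethal together with topoisomerase I blockade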 (primary screen). Cells: MDA-MB-231 cells, a human breast cancer line. Reagents: single siRNA against human genes, 20 nM siRNA (0.8 pmol per well). Timing: 120 h (drug added 48 h after transfection, read 72 h later). Treatment: camptothecin 20 nM (about EC30) for 72 h; vehicle 0.1% DMSO in parallel plates. Read-out: 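Cell viability by ATP luminescence (CellTiter-Glo) as % of non-targeting siRNA wells, and the log2 ratio of viability without drug over viability with camptothecin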. Reading the numbers: log2 vehicle/camptothecin viability: higher = stronger sensitisation to camptothecin; viability with camptothecin and viability without drug: higher = more viable cells. Call rule: 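Active genes have an RSA gene-level p-value below 0.001, computed from the ratios of their separate siRNAs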.
Here is an unselected part of about 26,000 reagents tested. Over the whole deposit, 167 (0.63%) got an active call. 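Calls are per gene from RSA p-values that are not deposited; an individual active-marked siRNA can sensitise only weakly.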 Unmarked entries are inactive. Reagents against one gene are numbered here. Reagent sequences are not shown.

no.	target gene	siRNA no.	log2 vehicle/camptothecin viability	viability with camptothecin (% of control)	viability without drug (% of control)
1	RAD54B (RAD54 homolog B)	1	0.0062	102	102
2	RAD54B (RAD54 homolog B)	2	0.31	68.2	84.6
3	RAD54B (RAD54 homolog B)	3	0.56	31.4	46.3
4	SUMO2 (small ubiquitin like modifier 2)	1	0.325	32.2	40.4
5	SUMO2 (small ubiquitin like modifier 2)	2	-0.218	113	96.7
6	SUMO2 (small ubiquitin like modifier 2)	3	0.502	53.6	75.9
7	IRF3 (interferon regulatory factor 3)	1	-0.15	45.5	41
8	IRF3 (interferon regulatory factor 3)	2	0.316	48.8	60.7
9	IRF3 (interferon regulatory factor 3)	3	-0.165	94.3	84.1
10	IRF3 (interferon regulatory factor 3)	4	0.215	35.6	41.3
11	OR12D2 (olfactory receptor family 12 subfamily D member 2)	1	-0.0789	105	99.2
12	OR12D2 (olfactory receptor family 12 subfamily D member 2)	2	-0.237	89.3	75.8
13	OR12D2 (olfactory receptor family 12 subfamily D member 2)	3	-0.179	84.3	74.4
14	OR12D2 (olfactory receptor family 12 subfamily D member 2)	4	-0.0399	64.7	62.9
15	CYP4A11 (cytochrome P450 family 4 subfamily A member 11)	1	-0.246	70	59
16	CYP4A11 (cytochrome P450 family 4 subfamily A member 11)	2	0.258	52.9	63.2
17	CYP4A11 (cytochrome P450 family 4 subfamily A member 11)	3	-0.053	91.4	88.1
18	CYP4A11 (cytochrome P450 family 4 subfamily A member 11)	4	-0.0379	79.7	77.6
19	ANAPC4 (anaphase promoting complex subunit 4)	1	-0.986	14.7	7.43
20	ANAPC4 (anaphase promoting complex subunit 4)	2	-0.329	88.6	70.6
21	ANAPC4 (anaphase promoting complex subunit 4)	3	-0.103	101	94.5
22	LRRC39 (leucine rich repeat containing 39)	1	-0.115	66.4	61.3
23	LRRC39 (leucine rich repeat containing 39)	2	0.238	24.2	28.6
24	LRRC39 (leucine rich repeat containing 39)	3	-0.193	74.2	64.9
25	LRRC39 (leucine rich repeat containing 39)	4	0.617	41.2	63.2
26	RYR3 (ryanodine receptor 3)	1	0.0263	32.3	32.9
27	RYR3 (ryanodine receptor 3)	2	-0.117	103	94.8
28	RYR3 (ryanodine receptor 3)	3	0.000954	79.1	79.1
29	RYR3 (ryanodine receptor 3)	4	0.0896	49.5	52.7
30	TXNL4A (thioredoxin like 4A)	1	-0.219	117	101
31	TXNL4A (thioredoxin like 4A)	2	-0.631	86.8	56.1
32	TXNL4A (thioredoxin like 4A)	3	-0.31	50	40.3
33	TXNL4A (thioredoxin like 4A)	4	-0.354	50.2	39.3
34	STEAP4 (STEAP4 metalloreductase)	1	-0.163	82.8	73.9
35	STEAP4 (STEAP4 metalloreductase)	2	-0.197	58.7	51.2
36	STEAP4 (STEAP4 metalloreductase)	3	-0.104	80.4	74.8
37	MAP3K14 (mitogen-activated protein kinase kinase kinase 14)	1	-0.352	45.1	35.4
38	MAP3K14 (mitogen-activated protein kinase kinase kinase 14)	2	-0.43	64.4	47.8
39	MAP3K14 (mitogen-activated protein kinase kinase kinase 14)	3	-0.0727	94	89.3
40	MAP3K14 (mitogen-activated protein kinase kinase kinase 14)	4	-0.127	85.4	78.2
41	CEACAM1 (CEA cell adhesion molecule 1)	1	-0.119	99.7	91.9
42	CEACAM1 (CEA cell adhesion molecule 1)	2	0.493	37.7	53.1
43	CEACAM1 (CEA cell adhesion molecule 1)	3	0.317	54.9	68.4
44	CEACAM1 (CEA cell adhesion molecule 1)	4	-0.199	98	85.4
45	HCAR2 (hydroxycarboxylic acid receptor 2)	1	0.433	62.7	84.7
46	HCAR2 (hydroxycarboxylic acid receptor 2)	2	-0.0322	95.4	93.3
47	HCAR2 (hydroxycarboxylic acid receptor 2)	3	-0.0724	30.5	29
48	HCAR2 (hydroxycarboxylic acid receptor 2)	4	0.186	54.6	62.1
49	AGL (amylo-alpha-1,6-glucosidase and 4-alpha-glucanotransferase)	1	-0.0143	82	81.2
50	AGL (amylo-alpha-1,6-glucosidase and 4-alpha-glucanotransferase)	2	-0.134	82	74.7
51	AGL (amylo-alpha-1,6-glucosidase and 4-alpha-glucanotransferase)	3	-0.445	69.3	50.9
52	RGS3 (regulator of G protein signaling 3)	1	0.305	53.4	65.9
53	RGS3 (regulator of G protein signaling 3)	2	-0.343	34.3	27.1
54	RGS3 (regulator of G protein signaling 3)	3	-0.443	107	78.5
55	RGS3 (regulator of G protein signaling 3)	4	-0.41	110	82.5
56	RGS3 (regulator of G protein signaling 3)	5	-0.0918	107	100
57	RGS3 (regulator of G protein signaling 3)	6	0.428	18.8	25.3
58	RGS3 (regulator of G protein signaling 3)	7	-0.103	102	94.8
59	RGS3 (regulator of G protein signaling 3)	8	-0.342	100	79.2
60	LUZP4 (leucine zipper protein 4)	1	-0.234	101	85.9
61	LUZP4 (leucine zipper protein 4)	2	-0.135	86	78.3
62	LUZP4 (leucine zipper protein 4)	3	0.0854	72.7	77.1
63	RBBP7 (RB binding protein 7, chromatin remodeling factor)	1	-0.344	80.1	63.1
64	RBBP7 (RB binding protein 7, chromatin remodeling factor)	2	0.0483	103	106
65	RBBP7 (RB binding protein 7, chromatin remodeling factor)	3	-0.288	94.6	77.5
66	NEK2 (NIMA related kinase 2)	1	-0.49	76.3	54.3
67	NEK2 (NIMA related kinase 2)	2	-0.239	113	95.8
68	NEK2 (NIMA related kinase 2)	3	-0.415	101	76
69	NEK2 (NIMA related kinase 2)	4	0.143	54.4	60.1

Part of the list above, set out differently.
HCAR2 (hydroxycarboxylic acid receptor 2) #1
- log2 vehicle/camptothecin viability: 0.433
- viability with camptothecin (% of control): 62.7
- viability without drug (% of control): 84.7

HCAR2 (hydroxycarboxylic acid receptor 2) #2
- log2 vehicle/camptothecin viability: -0.0322
- viability with camptothecin (% of control): 95.4
- viability without drug (% of control): 93.3

HCAR2 (hydroxycarboxylic acid receptor 2) #3
- log2 vehicle/camptothecin viability: -0.0724
- viability with camptothecin (% of control): 30.5
- viability without drug (% of control): 29

HCAR2 (hydroxycarboxylic acid receptor 2) #4
- log2 vehicle/camptothecin viability: 0.186
- viability with camptothecin (% of control): 54.6
- viability without drug (% of control): 62.1

AGL (amylo-alpha-1,6-glucosidase and 4-alpha-glucanotransferase) #1
- log2 vehicle/camptothecin viability: -0.0143
- viability with camptothecin (% of control): 82
- viability without drug (% of control): 81.2

AGL (amylo-alpha-1,6-glucosidase and 4-alpha-glucanotransferase) #2
- log2 vehicle/camptothecin viability: -0.134
- viability with camptothecin (% of control): 82
- viability without drug (% of control): 74.7

AGL (amylo-alpha-1,6-glucosidase and 4-alpha-glucanotransferase) #3
- log2 vehicle/camptothecin viability: -0.445
- viability with camptothecin (% of control): 69.3
- viability without drug (% of control): 50.9
